No constants are given. Whether binding was seen depends on the method and setting. Some binding calls cover weakened binding; strength is not graded here.
Key:
[1] = target: MORF4L1 (mortality factor 4-like 1) (human) (UniProt Q9UBU8); test: cross-linking; XL-MS: freshly purified SIN3B complex at 1.7 μM with DSSO, on ice for 10 min, quenched with Tris pH 8, trypsin digest, LC-MS; both purified
[2] = target: MORF4L1 (mortality factor 4-like 1) (human) (UniProt Q9UBU8); test: cryo-EM structure; apo SIN3B complex; SIN3B^FL sample (full-length PHF12, 3.4 Å), SIN3B complex sample (PHF12 1-502, 3.7 Å) and SIN3B^core map (2.8 Å); subunits co-expressed with RbBP7 and co-purified, GraFix (glutaraldehyde) treated; both purified

Sequences of proteins named here, by UniProt entry; tags and fusion partners are left off. A change or cut given only in a name is not applied to a line headed by its entry.
UniProt Q9UBU8: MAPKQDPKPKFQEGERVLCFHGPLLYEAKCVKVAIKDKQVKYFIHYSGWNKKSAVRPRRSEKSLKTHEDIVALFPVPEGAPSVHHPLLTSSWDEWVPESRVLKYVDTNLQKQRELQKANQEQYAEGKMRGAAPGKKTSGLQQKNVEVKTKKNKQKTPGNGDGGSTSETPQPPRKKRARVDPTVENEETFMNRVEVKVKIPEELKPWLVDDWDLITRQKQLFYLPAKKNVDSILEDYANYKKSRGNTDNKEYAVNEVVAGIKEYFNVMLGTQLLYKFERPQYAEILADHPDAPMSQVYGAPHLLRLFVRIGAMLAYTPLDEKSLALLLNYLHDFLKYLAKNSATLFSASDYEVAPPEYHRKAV
UniProt Q96QT6: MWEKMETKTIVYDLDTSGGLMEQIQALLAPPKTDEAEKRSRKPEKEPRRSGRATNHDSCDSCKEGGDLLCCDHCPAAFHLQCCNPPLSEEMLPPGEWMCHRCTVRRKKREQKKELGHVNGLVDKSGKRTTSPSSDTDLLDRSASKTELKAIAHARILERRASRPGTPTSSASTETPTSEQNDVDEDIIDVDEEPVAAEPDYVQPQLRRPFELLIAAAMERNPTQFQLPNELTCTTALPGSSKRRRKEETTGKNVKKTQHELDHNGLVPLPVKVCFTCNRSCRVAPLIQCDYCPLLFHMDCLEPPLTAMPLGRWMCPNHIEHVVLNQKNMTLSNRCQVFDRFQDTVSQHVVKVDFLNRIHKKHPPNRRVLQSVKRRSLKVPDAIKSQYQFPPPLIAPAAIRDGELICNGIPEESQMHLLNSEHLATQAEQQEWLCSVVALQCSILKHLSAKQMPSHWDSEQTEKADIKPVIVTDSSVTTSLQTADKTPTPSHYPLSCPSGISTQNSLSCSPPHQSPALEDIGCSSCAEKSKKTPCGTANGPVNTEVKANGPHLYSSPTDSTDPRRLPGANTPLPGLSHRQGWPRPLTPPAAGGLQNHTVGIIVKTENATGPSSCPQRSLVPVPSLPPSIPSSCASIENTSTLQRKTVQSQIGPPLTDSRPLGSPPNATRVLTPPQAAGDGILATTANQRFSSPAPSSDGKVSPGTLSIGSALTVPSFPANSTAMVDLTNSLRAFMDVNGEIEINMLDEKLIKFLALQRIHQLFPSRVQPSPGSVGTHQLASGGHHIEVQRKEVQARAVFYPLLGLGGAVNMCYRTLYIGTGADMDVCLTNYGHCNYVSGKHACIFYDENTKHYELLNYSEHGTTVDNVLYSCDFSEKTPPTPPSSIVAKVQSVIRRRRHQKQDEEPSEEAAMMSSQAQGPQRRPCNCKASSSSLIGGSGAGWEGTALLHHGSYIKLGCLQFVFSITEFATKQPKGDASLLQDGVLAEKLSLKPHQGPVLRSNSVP

Substance	binding [1]	binding [2]
PHF12^ΔC-terminus (residues 1-502) (from UniProt Q96QT6 1-502) (domain or fragment)	binds	binds
PHF12 (full-length) (from UniProt Q96QT6 1-1004)		binds
